# Laboratory results as given in the supplement of paper PMC3334620.
# In all, about 33,000 sequences were measured (“E-score (-0.5 to 0.5)”: median about -0.0059, highest 2% from about 0.26 on). The list shows a part of the results.
# Biological target: T1, Cin5 (UniProt P40917)
# T1 sequence: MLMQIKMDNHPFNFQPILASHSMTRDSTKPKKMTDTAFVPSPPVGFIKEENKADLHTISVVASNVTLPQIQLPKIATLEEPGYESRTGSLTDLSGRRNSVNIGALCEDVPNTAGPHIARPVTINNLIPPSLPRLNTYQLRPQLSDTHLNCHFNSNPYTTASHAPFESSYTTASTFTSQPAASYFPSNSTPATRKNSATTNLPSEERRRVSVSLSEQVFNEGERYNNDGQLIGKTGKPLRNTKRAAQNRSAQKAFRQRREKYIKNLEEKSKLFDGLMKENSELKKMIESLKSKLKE
# Assay: PBM E-score (8-mer binding enrichment) (E-score (-0.5 to 0.5)); higher = stronger / more preferred TF binding
# Details: protein concentration: 100 nM; construct: GST-full length
# Method in brief: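 Each ungapped eight-base word and its reverse complement, pooled, received an E-score from the Universal PBM Analysis Suite. Underlying scans, normalised with masliner, recorded fluorescent anti-GST bound to GST-tagged yeast transcription factors. These were applied at about 100-200 nM to universal all-10-mer Agilent arrays double-stranded by primer extension.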
row,Sequence,PBM E-score
1,ACACTTTC,0.154
2,ATACAAAA,0.28
3,ATATATAA,0.335
4,CCTTTTAG,-0.205
5,AAATTGAC,0.0984
6,CCCGTATA,-0.0229
7,ATGTCTCA,0.0216
8,ACTGTGTA,0.0904
9,ATATTTTG,0.0818
10,AGTTACTC,0.0474
11,ACGCTATA,-0.101
12,TTCCCGAA,0.0909
13,TCCTACGA,-0.239
14,AAGCTCTC,-0.204
15,AGTGGGGA,-0.0745
16,CCACAACA,-0.0453
17,ACATGGAA,0.0579
18,ACACCGGT,-0.113
19,GAGTCACA,-0.067
20,CGACCAGC,-0.127
21,ACATTATC,0.289
22,AATTCCTA,0.15
23,CTAGGCAG,-0.112
24,GTCGCAAA,0.052
25,GGGAGGCA,-0.185

row,Sequence,PBM E-score
1,ATCCTCTC,0.0131
2,AGGCTGTA,-0.0114
3,ACAAAGAT,0.165
4,CGTACCCC,0.0116
5,CGTTCCGA,0.111
6,ACCGGGAT,-0.0607
7,ACCCTACG,-0.0466
8,AGTCATAC,0.0498
9,GCACATCC,-0.0517
10,CGCTCCTC,-0.373
11,ACTGCCAT,0.082
12,TAACCAGA,-0.082
13,ACAATATA,0.269
14,CTCCAGTA,0.144
15,CTATGCAA,0.0805
16,ACGGTACC,-0.125
17,ATGTACAA,0.0216
18,AAACAATA,0.287
19,GTCTCGAA,-0.105
20,AGTCTCTC,-0.149
21,CAGCAAAG,-0.0276
22,TATCTTGA,0.104
23,ATTGGCAG,-0.074
24,ACGCTGCC,-0.139
25,GACTAGAC,-0.179

row,Sequence,PBM E-score
1,CAAACACG,0.0926
2,TGCGCTAA,0.17
3,GCCGTTCC,-0.054
4,GAAACCAC,0.121
5,GTTACGAA,0.16
6,ACGTGCAA,0.135
7,CAGCCCGC,-0.197
8,GGCTCCTA,-0.233
9,TACAAGGA,0.0158
10,AAATTCTT,-0.0979
11,CTTCACCC,0.0607
12,TATCTGCA,-0.00198
13,ACCTCCCG,-0.195
14,CAGGGGAC,-0.375
15,CGATGGCG,-0.00568
16,AATCCGGT,0.168
17,CAAGAGCC,-0.0752
18,CTTGAACA,-0.039
19,AAGCCGGA,0.162
20,AACGTCGC,-0.0557
21,CACTGGGC,-0.14
22,GCTAATCC,0.114
23,GGTGCATA,-0.0385
24,CAAGATCG,0.00613
25,CTGTGGAA,-0.059

row,Sequence,PBM E-score
1,CTGTAAGC,0.0794
2,TTGAGAAA,0.159
3,GCGGACCA,0.0568
4,ATGTAATA,0.361
5,TAATGCGA,0.131
6,CTTTCACC,0.0758
7,AGTACACC,0.0554
8,ATATACCG,0.142
9,CGCAGCTA,-0.0588
10,CTGCCAGA,-0.253
11,ACTCCACT,-0.17
12,ACAGCTTG,0.11
13,ACCGTCCG,-0.195
14,AATTTTCA,0.137
15,GACACTCA,-0.0435
16,CCACTCTA,0.0982
17,AAATATTT,0.141
18,CTGCTGGC,-0.376
19,CACACGCA,-0.0982
20,CACACCGG,-0.0678
21,GGTCCTGA,-0.0423
22,CCGGTGCG,-0.12
23,CAGTGGTC,-0.132
24,GGTAACAC,0.124
25,CCTGGTAG,-0.156

row,Sequence,PBM E-score
1,CCTTATAC,0.0498
2,CAGTCACG,-0.161
3,CCCGAACC,-0.12
4,CAAACCAG,-0.0671
5,CCTAAGCC,-0.18
6,GCGCTGAA,-0.2
7,AAGAAAAA,0.0155
8,ATGACCTG,-0.0382
9,CGTTGCGA,-0.0384
10,ACGCACCG,-0.0586
11,ATTACTGA,0.108
12,CTACTGAG,-0.0292
13,TCCAAAGA,-0.0912
14,CCTCAATA,-0.0429
15,AAGATGTG,0.0887
16,ACGCCCAC,0.0509
17,GGACTACC,-0.244
18,GGTTGTGA,0.144
19,TTAGACAA,0.108
20,GGCGTCTA,-0.208
21,AAACACCT,-0.0455
22,TATCGTGA,-0.0431
23,AGTTCCAT,0.159
24,AGGTGTAC,-0.0656
25,GAGTACCA,0.125

# In a second layout: results already given
row | Sequence | PBM E-score
12 | TTCCCGAA | 0.0909
22 | AATTCCTA | 0.15
20 | AGTCTCTC | -0.149
14 | CAGGGGAC | -0.375
21 | GGTCCTGA | -0.0423
4 | CAAACCAG | -0.0671

# Remaining list, next part:

row,Sequence,PBM E-score
1,AAGGATGC,-0.00955
2,CCTGCTAG,-0.254
3,ACATCTCG,0.068
4,AGGCATTC,-0.0484
5,AATGAGTG,0.146
6,ATGCGGTC,-0.0372
7,CTGATCGC,0.0487
8,AAGAATCC,-0.0347
9,CCATGCGA,0.0615
10,CCCGCCCC,0.117
11,ATCACTAA,0.0259
12,TAGCTTAA,0.0898
13,ACTATGCA,0.0827
14,TAATATAA,0.355
15,GAAGCGCC,-0.0664
16,GCTGACTA,0.164
17,GACGCAAA,0.0322
18,ATGTCTCG,0.0364
19,AGAACCTA,0.00385
20,AAGTTGAA,0.0648
21,CATTTGCA,0.0979
22,CCATACTC,0.0191
23,AGTTCAAG,-0.0113
24,ACCATCTA,-0.106
25,GCCTATGA,-0.142

row,Sequence,PBM E-score
1,AATCCCTC,-0.113
2,AGCGCGCA,0.17
3,CGAGCTTC,0.107
4,AGCGGCAA,-0.0619
5,GAGCCCCA,-0.251
6,AATTGAAC,-0.0725
7,CCATACAG,-0.0464
8,ACCCCTGG,-0.189
9,ACTATAGA,0.156
10,GTCACGCA,0.0339
11,ACTCACTC,-0.0322
12,CAGCAAGC,-0.221
13,CACCACTC,-0.0334
14,ACCACCGG,-0.0652
15,GCCATAAA,-0.0591
16,AATCCAAT,0.195
17,GGTAAACC,-0.173
18,ATAACTCG,0.121
19,GTTATAAC,-0.103
20,CCCAAGAA,0.062
21,ACCTTACT,0.0647
22,TAAGGCGA,-0.0125
